Results reported in paper doi:10.1101/634816.

Amino acid sequences for entries named in this document (tags omitted). Residues count along the entry.
UniProt P93024, 1-390: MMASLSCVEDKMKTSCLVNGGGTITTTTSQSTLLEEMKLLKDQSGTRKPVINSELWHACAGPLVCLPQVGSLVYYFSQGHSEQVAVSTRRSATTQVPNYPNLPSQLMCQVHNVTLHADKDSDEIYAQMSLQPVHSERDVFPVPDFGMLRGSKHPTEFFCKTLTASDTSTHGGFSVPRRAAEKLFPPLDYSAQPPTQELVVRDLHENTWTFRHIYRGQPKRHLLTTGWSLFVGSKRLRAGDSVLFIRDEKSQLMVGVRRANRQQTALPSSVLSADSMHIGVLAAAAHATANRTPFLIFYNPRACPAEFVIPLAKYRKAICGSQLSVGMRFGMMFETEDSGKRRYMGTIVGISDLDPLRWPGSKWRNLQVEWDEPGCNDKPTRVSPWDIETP

Target: AtARF5-DBD (Arabidopsis thaliana) (UniProt P93024)
Test: Ni-NTA pull-down with SYBR Gold fluorescence
Conditions: residues 1-390

Sequence | binding result (significantly below ER7) | further results
CCGGTAGGTTGTCAACCAAAGGGAGACAACCGGTAGG (double strand) [ER7-1m (ER7-single motif)] | – | binding result (significantly reduced vs ER7): binds more weakly
CCGGTAGGTTGTCATCCAAAGGATGACAACCGGTAGG (double strand) [ER7-AT] | – | binding result (lowest binding of the variants): binds more weakly
CCGGTAGGTTGTCGACCAAAGGTCGACAACCGGTAGG (double strand) [ER7-GA] | binds more weakly | –
CCGGTAGGTTGTCTCCCAGGGAGACAACCGGTAGG (double strand) [ER5] | binds more weakly | –

A weaker result is weaker than the reference pair of the same experiment.
